Reference: the supplement of paper PMC6411743
± gives the standard deviation of the averaged measurements. Only a part is listed here, and it is no random draw. Small differences around the control level are noise.

Sequences of proteins named here, by UniProt entry; tags and fusion partners are left off. A change or cut given only in a name is not applied to a line headed by its entry.
UniProt Q5SQI0: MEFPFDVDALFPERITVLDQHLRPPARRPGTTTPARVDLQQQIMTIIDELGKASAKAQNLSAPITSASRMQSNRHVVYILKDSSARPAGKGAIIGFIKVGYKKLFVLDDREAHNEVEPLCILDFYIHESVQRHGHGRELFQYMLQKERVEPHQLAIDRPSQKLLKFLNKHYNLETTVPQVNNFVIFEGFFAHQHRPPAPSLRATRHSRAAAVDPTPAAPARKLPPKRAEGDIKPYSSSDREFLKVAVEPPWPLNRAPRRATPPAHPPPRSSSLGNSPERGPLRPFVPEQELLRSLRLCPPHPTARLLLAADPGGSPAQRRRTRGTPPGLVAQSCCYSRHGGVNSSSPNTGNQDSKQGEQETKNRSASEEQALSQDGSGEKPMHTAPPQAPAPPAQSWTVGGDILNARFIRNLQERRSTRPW
UniProt Q5UIP0: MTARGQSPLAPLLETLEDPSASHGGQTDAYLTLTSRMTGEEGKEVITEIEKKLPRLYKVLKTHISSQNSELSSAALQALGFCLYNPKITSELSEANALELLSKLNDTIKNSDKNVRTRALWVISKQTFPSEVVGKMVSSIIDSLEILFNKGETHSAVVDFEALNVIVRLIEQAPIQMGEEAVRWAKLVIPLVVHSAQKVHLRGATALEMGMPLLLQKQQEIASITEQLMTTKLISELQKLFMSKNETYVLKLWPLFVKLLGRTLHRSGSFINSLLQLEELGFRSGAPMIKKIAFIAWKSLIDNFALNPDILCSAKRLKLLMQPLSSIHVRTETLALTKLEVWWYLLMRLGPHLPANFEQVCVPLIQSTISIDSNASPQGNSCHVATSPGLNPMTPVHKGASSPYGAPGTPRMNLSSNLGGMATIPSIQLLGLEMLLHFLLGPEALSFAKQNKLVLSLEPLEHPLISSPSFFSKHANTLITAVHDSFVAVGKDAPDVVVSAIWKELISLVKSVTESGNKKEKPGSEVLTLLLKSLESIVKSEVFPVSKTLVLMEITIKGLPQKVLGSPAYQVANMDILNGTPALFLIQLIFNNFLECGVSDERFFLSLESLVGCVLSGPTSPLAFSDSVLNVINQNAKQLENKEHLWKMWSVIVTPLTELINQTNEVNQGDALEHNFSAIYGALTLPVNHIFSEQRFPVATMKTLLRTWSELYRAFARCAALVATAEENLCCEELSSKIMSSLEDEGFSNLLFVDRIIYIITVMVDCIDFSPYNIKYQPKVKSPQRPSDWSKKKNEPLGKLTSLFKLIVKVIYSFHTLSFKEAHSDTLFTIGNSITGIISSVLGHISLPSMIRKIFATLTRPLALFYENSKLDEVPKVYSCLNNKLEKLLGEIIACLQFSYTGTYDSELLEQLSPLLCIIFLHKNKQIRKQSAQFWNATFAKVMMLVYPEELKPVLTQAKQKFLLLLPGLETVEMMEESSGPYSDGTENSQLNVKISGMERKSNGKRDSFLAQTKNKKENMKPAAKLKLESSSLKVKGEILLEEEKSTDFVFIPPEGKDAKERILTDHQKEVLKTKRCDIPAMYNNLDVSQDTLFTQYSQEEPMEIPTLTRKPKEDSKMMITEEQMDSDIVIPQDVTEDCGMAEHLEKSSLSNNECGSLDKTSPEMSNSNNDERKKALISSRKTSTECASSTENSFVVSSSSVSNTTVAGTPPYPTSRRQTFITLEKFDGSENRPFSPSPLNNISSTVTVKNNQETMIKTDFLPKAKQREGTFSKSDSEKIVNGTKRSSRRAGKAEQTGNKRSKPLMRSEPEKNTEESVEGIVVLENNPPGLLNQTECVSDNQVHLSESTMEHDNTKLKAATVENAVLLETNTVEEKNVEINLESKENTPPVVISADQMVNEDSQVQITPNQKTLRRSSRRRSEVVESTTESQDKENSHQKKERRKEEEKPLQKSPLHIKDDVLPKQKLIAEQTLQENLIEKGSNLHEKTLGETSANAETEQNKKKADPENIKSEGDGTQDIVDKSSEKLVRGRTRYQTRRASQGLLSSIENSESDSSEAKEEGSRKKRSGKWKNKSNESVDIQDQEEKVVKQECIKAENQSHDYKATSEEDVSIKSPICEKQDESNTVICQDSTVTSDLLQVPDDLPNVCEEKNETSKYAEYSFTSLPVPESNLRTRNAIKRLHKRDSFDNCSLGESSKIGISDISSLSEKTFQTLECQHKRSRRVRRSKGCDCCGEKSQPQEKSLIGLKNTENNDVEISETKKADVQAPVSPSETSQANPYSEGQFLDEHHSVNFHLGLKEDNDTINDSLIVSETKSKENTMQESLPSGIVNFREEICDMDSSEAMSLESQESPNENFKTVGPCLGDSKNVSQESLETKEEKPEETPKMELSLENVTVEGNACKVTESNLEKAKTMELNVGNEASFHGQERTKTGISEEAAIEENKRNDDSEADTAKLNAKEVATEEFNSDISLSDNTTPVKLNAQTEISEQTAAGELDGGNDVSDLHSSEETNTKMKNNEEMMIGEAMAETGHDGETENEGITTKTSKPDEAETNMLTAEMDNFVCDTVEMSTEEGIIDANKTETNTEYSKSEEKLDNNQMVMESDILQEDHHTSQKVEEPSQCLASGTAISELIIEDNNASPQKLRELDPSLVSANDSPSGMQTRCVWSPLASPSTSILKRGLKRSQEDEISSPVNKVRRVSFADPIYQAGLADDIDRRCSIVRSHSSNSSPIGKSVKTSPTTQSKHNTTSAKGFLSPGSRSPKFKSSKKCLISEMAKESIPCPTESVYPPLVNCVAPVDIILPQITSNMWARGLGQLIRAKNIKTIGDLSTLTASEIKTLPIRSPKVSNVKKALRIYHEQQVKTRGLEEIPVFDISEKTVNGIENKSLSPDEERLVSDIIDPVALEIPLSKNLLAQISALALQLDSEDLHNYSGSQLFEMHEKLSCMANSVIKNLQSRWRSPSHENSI
UniProt Q5GLZ8: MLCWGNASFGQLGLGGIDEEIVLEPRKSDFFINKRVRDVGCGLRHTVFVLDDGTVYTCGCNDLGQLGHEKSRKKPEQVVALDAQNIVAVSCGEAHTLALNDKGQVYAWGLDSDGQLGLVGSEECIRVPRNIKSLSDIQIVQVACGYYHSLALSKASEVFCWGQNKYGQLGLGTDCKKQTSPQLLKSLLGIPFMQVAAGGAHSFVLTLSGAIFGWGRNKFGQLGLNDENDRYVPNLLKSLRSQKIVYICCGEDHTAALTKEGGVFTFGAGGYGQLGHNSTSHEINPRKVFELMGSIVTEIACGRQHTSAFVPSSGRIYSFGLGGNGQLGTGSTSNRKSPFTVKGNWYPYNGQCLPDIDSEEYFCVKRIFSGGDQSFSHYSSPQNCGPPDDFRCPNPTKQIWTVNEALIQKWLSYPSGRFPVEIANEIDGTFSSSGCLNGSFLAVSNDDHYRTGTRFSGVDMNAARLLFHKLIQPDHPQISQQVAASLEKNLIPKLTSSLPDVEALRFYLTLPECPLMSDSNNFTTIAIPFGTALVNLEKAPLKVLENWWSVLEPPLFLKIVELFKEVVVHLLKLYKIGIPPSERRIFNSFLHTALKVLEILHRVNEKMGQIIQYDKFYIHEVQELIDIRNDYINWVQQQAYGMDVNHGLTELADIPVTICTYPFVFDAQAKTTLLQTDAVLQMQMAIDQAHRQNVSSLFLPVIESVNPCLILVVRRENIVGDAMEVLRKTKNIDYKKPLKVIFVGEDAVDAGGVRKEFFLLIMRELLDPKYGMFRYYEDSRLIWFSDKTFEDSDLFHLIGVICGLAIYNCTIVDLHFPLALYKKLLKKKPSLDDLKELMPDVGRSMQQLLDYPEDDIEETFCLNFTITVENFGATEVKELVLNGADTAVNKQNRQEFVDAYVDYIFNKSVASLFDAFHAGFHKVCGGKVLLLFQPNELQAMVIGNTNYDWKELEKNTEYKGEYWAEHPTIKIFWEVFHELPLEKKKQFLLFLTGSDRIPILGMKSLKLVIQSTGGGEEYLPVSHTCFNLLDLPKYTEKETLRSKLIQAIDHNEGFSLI
UniProt Q15428: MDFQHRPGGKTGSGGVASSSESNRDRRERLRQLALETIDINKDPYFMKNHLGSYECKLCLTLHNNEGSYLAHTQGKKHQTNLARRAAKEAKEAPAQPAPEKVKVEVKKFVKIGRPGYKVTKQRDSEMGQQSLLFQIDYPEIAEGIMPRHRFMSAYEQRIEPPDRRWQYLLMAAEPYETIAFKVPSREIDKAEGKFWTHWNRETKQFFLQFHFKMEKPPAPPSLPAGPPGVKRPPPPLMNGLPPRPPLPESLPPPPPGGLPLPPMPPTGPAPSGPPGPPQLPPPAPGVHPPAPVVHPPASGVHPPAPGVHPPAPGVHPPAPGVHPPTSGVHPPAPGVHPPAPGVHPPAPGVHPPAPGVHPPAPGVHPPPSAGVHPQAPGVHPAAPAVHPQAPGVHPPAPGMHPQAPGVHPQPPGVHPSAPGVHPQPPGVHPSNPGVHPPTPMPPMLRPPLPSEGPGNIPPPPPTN
UniProt Q5JTH9: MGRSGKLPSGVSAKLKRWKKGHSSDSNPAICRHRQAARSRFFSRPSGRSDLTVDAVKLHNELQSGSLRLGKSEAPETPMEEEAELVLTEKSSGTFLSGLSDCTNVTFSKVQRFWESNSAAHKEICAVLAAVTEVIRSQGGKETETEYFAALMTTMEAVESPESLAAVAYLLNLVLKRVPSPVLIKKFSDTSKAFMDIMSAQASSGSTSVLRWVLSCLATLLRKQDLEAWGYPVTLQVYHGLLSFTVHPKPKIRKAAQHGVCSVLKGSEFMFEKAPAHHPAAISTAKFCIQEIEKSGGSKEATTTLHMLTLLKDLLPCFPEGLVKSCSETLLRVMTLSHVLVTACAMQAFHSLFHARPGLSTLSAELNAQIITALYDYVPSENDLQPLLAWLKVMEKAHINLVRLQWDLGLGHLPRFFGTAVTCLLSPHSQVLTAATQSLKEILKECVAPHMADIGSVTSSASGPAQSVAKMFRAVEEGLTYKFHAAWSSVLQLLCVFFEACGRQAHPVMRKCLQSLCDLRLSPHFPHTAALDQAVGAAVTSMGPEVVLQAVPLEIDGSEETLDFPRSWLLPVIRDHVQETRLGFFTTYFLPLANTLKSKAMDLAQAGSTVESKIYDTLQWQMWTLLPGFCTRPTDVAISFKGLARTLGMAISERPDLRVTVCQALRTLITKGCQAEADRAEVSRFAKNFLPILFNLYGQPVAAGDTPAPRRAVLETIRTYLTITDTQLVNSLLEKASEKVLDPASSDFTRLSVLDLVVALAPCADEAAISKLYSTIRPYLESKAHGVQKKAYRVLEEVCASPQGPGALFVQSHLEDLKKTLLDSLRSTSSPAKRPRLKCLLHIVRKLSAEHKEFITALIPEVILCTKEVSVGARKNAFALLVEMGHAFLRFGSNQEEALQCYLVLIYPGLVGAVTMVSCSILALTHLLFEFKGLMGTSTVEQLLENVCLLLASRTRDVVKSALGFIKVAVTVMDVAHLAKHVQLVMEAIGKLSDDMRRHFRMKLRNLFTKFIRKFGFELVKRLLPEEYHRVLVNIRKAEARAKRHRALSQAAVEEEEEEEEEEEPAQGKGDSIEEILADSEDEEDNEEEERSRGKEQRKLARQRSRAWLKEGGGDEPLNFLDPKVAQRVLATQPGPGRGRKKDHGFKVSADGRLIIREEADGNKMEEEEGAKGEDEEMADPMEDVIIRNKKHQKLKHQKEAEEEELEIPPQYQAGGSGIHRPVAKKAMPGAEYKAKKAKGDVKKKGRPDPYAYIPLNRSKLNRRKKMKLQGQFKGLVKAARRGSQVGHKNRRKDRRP
UniProt Q59H18: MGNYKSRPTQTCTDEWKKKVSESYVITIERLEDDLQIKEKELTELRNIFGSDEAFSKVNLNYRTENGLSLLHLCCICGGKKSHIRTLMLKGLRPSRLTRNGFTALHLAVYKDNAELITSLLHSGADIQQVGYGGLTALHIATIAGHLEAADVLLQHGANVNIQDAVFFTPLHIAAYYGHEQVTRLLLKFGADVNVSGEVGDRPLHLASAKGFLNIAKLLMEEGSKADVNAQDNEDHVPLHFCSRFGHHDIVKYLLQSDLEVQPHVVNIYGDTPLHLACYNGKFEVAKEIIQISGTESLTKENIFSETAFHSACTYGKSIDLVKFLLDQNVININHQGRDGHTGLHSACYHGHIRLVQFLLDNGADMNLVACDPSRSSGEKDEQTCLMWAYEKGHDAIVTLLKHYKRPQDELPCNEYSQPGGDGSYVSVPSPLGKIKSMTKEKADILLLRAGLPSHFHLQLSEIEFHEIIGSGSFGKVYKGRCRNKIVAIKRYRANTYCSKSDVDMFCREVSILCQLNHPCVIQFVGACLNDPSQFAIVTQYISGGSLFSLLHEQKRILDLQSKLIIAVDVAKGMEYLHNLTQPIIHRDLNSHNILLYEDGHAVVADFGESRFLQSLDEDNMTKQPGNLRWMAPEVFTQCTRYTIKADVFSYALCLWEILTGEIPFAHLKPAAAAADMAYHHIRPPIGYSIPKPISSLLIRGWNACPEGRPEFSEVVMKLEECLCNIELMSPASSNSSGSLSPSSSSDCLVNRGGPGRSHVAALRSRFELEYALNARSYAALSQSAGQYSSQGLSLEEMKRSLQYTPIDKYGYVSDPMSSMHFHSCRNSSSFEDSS

What follows are targets tested with Nc1ncnc2c1ncn2[C@@H]1O[C@H](COP(=O)(O)OP(=O)(O)NP(=O)(O)O)[C@@H](O)[C@H]1O [adenylyl imidodiphosphate] (assay: NP40-soluble protein abundance relative to vehicle (solubility fold change) (ratio); higher = more soluble protein in presence of AMP-PNP). Conditions: concentration: 0.1mM.
Procedure, shortened: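 Values are fold changes against the detergent-processed vehicle, based on vsn-normalised intensities. Jurkat crude lysate was treated at eight concentrations from 0.1 to 10 mM (10 min at room temperature, then 3 min at 37 °C), solubilised with 0.8% NP40 and benzonase, ultracentrifuged and analysed by TMT-labelled LC-MS/MS over three independent experiments.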

Target	NP40-soluble protein abundance
BEND3 (UniProt Q5T5X7)	1.01 ± 0.021
UniProt Q5JWR5 and related entries	0.9985 ± 0.0049
UniProt Q16864 and related entries	1.01 ± 0.027
ZYX (UniProt Q15942)	0.993 ± 0.022
HERC1 (UniProt Q15751)	0.958 ± 0.071
UniProt Q5T011 and related entries	0.815 ± 0.029
UniProt Q3MHD2 and related entries	1.03 ± 0.023
UniProt Q5T1M5 and related entries	0.98 ± 0.015
UniProt Q16656 and related entries	1.03 ± 0.072
UniProt Q5SQI0 and related entries	0.9952 ± 0.0037
RCN1 (UniProt Q15293)	0.993 ± 0.03
Q5QPA5 and related entries (UniProt Q9NVS2)	1.04 ± 0.032
UniProt Q4G0N4	0.988 ± 0.025
UniProt Q15542 and related entries	1.02 ± 0.039
UniProt Q5JTD0 and related entries	1.01 ± 0.022
RIF1 (UniProt Q5UIP0)	0.964 ± 0.025
UniProt Q5PSV4 and related entries	1.09 ± 0.021
LGALSL (UniProt Q3ZCW2)	1.02 ± 0.031
UniProt Q5GLZ8 and related entries	1 ± 0.052

Laid out differently: entries from further up.
Target,NP40-soluble protein abundance
Q5QPA5 and related entries (UniProt Q9NVS2),1.04 ± 0.032
UniProt Q5PSV4 and related entries,1.09 ± 0.021

(listing goes on)

Target	NP40-soluble protein abundance
UniProt Q5MIZ7 and related entries	0.989 ± 0.03
UniProt Q16659	1.01 ± 0.035
HSP90AB4P (UniProt Q58FF6)	0.969 ± 0.074
UniProt Q16555 and related entries	1.01 ± 0.015
UniProt Q16531 and related entries	1.02 ± 0.048
UniProt Q16512 and related entries	1.01 ± 0.039
Q5THR1 and related entries (UniProt Q9H5Z1)	0.9857 ± 0.0027
UniProt Q5JTJ3 and related entries	0.977 ± 0.033
PPP2R5A (UniProt Q15172)	1.01 ± 0.017
TBCEL (UniProt Q5QJ74)	0.995 ± 0.041
SF3A2 (UniProt Q15428)	0.993 ± 0.023
TTF1 (UniProt Q15361)	0.983 ± 0.012
UniProt Q5JTH9 and related entries	1.01 ± 0.027
Q5TCJ5 and related entries (UniProt Q9H3S1)	0.984 ± 0.024
UniProt Q5SGD2 and related entries	1.031 ± 0.0056
UniProt Q15120 and related entries	1.07 ± 0.1
RAB11B (UniProt Q15907)	1 ± 0.043
Q59H18-1|Q59H18-3|Q59H18-4|V9GXZ4 (UniProt V9GXZ4+Q59H18)	1.06 ± 0.055
